In the supplement of paper PMC10849652:
The list shows a part of the results.

Sequences of proteins named here, by UniProt entry; tags and fusion partners are left off. A change or cut given only in a name is not applied to a line headed by its entry.
UniProt O95405: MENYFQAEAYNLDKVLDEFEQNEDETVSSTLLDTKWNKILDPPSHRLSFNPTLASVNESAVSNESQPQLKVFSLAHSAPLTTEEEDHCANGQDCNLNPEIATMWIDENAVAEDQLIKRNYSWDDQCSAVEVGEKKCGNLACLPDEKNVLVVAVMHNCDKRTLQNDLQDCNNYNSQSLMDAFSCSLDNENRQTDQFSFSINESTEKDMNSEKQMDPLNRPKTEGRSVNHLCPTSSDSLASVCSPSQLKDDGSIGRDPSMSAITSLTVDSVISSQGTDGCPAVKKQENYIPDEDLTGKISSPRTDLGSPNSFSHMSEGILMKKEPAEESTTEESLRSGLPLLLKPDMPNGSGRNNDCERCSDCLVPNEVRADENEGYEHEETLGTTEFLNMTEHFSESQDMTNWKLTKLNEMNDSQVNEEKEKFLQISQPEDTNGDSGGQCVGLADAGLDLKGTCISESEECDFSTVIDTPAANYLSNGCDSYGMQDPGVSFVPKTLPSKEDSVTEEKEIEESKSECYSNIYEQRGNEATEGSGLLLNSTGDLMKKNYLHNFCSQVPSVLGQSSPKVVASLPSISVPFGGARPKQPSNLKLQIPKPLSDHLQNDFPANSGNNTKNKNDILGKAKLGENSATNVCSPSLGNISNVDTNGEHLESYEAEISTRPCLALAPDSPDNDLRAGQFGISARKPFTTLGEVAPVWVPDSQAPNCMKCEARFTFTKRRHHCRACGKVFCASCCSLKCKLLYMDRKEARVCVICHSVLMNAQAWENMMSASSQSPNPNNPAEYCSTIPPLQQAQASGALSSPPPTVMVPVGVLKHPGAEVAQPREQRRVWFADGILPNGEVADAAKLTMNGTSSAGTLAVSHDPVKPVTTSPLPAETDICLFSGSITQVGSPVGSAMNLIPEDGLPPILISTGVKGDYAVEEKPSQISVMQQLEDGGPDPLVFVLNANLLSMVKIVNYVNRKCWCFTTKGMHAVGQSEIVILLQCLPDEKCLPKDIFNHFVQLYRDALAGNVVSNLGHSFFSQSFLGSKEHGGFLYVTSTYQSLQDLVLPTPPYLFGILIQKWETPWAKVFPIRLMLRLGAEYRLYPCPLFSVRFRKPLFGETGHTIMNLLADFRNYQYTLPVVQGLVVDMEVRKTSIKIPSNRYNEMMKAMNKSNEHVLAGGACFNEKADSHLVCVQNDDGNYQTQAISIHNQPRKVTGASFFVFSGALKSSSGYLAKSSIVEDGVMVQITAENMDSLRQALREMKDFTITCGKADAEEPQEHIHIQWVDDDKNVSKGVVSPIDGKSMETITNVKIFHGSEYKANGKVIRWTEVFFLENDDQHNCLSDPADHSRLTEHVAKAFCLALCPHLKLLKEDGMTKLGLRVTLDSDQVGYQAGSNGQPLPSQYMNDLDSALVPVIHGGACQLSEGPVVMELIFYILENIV
UniProt Q9HAV4: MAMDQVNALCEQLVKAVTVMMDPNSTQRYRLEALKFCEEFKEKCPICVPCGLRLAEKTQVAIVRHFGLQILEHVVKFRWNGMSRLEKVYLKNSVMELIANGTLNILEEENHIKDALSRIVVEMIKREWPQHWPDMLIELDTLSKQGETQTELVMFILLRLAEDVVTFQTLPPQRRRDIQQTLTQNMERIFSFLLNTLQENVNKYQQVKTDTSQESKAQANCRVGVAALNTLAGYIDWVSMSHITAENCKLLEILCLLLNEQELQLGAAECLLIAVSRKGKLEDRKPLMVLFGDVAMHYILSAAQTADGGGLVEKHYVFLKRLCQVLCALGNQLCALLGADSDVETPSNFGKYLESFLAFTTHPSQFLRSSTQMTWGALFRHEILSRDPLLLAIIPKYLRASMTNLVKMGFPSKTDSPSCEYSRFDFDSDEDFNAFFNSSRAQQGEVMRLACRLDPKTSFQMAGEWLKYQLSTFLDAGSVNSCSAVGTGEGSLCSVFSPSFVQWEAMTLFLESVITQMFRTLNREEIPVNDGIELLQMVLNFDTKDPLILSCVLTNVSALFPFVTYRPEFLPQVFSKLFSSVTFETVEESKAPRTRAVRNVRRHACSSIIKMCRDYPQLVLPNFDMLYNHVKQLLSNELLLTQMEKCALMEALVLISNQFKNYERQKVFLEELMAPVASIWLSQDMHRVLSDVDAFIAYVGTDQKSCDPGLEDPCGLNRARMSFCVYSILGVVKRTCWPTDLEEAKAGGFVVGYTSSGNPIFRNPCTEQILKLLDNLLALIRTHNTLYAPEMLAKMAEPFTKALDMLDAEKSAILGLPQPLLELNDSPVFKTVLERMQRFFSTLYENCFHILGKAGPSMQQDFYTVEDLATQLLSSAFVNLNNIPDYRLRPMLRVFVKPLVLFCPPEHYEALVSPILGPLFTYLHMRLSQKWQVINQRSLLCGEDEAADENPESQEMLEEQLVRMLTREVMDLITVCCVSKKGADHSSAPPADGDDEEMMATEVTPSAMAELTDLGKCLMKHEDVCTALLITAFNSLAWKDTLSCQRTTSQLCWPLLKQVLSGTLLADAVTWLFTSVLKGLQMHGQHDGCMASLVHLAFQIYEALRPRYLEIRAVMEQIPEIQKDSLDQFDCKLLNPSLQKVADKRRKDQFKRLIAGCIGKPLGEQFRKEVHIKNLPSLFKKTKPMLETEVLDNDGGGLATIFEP
UniProt O14980, whole entry, looked up: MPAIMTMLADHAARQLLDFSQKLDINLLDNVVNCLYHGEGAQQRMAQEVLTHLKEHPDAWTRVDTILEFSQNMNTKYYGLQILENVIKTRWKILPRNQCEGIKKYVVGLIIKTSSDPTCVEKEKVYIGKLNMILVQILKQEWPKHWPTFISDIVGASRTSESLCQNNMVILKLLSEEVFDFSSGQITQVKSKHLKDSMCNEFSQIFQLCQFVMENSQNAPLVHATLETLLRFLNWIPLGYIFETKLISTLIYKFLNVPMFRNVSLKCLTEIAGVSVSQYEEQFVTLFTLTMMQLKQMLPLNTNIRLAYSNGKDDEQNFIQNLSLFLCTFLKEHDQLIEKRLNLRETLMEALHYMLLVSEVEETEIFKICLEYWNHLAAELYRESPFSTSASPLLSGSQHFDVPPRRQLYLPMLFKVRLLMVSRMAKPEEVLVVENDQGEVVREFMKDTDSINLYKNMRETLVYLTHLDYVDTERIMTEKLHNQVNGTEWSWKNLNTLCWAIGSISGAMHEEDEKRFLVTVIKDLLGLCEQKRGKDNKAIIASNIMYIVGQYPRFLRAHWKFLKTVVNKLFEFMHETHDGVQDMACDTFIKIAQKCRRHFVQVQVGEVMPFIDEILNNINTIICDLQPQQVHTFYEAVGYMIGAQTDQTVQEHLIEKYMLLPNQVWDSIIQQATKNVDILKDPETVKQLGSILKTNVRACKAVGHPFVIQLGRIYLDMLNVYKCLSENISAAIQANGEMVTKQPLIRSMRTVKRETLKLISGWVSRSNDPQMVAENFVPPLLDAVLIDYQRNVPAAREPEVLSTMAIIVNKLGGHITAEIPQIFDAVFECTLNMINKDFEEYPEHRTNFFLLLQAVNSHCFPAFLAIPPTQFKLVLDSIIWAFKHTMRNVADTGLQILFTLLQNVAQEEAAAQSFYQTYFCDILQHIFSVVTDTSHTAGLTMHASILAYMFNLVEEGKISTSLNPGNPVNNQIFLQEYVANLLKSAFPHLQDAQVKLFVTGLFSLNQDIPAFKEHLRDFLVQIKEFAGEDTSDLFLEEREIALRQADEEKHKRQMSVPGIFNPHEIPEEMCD
UniProt Q8IUH5: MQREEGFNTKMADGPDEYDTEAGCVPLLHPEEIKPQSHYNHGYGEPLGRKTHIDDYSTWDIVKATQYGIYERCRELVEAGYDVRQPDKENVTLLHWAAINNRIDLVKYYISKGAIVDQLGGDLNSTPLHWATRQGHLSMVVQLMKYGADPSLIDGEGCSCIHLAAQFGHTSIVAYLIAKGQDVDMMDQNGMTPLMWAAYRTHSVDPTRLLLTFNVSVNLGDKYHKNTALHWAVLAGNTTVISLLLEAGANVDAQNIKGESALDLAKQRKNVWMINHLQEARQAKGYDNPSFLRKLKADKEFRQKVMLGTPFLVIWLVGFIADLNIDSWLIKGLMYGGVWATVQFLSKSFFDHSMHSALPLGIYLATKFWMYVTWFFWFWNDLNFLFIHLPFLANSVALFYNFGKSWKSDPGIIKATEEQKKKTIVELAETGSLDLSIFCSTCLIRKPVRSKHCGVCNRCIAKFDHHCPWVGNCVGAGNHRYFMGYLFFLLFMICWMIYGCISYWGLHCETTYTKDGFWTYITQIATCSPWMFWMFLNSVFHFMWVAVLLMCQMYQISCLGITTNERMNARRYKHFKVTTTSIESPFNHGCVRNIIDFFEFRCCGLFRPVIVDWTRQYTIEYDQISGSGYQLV
UniProt Q5W0Z9: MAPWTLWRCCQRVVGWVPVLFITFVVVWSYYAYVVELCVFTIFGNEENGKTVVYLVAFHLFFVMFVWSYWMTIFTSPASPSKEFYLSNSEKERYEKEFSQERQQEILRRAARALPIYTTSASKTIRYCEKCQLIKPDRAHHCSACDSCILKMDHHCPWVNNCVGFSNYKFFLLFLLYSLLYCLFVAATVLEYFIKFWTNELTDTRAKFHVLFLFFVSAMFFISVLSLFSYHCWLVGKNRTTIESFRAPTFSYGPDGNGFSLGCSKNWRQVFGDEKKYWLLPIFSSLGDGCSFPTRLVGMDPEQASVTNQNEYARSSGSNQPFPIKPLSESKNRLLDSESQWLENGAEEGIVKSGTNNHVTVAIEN
UniProt Q9BSR8: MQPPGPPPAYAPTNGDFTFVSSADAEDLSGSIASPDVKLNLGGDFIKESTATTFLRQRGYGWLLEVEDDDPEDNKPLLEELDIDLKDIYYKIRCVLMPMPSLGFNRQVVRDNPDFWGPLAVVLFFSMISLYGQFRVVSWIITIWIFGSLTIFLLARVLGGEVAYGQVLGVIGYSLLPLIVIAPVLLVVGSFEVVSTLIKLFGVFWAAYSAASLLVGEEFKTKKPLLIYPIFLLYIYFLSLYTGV
UniProt P25490, whole entry, looked up: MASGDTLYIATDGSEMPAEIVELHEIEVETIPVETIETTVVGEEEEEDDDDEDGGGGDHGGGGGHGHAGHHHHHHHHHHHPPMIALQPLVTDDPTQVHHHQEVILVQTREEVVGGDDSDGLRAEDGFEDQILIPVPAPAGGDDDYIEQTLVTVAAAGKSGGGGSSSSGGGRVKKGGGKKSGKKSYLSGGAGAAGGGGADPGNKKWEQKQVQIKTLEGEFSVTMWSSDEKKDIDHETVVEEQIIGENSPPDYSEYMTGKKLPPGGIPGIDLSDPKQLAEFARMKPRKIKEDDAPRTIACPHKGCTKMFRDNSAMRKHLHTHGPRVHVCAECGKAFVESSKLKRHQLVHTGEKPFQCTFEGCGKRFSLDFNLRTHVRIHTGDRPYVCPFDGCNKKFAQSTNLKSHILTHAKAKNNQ
UniProt Q969M3: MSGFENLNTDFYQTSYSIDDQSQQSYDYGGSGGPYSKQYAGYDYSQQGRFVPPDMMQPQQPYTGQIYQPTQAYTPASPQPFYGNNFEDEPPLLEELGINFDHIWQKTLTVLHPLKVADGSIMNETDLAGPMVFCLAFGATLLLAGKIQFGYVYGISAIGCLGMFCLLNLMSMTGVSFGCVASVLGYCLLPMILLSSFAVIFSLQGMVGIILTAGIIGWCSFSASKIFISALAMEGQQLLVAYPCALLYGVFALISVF
UniProt Q9NQW7: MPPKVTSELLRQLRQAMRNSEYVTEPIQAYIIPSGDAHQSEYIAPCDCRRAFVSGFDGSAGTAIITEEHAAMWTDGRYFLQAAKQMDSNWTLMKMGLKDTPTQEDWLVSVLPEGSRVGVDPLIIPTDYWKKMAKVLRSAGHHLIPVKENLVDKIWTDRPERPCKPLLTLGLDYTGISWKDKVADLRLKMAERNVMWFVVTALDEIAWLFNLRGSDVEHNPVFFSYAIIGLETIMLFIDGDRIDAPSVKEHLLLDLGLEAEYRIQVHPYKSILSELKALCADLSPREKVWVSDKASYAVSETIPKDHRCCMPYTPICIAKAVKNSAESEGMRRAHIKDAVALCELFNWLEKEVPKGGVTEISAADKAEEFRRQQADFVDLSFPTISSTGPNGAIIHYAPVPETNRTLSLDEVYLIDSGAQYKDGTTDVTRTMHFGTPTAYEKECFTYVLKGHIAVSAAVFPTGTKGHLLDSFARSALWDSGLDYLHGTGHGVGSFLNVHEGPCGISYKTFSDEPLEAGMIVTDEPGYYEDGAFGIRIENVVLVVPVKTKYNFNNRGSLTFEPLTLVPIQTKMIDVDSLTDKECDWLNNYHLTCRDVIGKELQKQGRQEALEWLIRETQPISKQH

Experiments:
Experiment in all cases: log2 fold change, soluble protein after heating vs DMSO (PISA); higher = thermal stabilisation; K562 cells, 10 uM, 30 min; active = over 0.2 and 3.5 SD of the protein, either way, in both replicates (recomputed)
[1] = compound: CC1=C(C=C(C=C1)NC(=O)C2=CC(=CC=C2)C(C)(C)C#N)NC3=CC4=C(C=C3)N=CN(C4=O)C
In short: (§1)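 Values are thermal stability changes relative to control samples and are taken from duplicates. They are stated as log2 fold changes. Before quantification by TMTpro 16plex LC-MS/MS with equalised channel sums, K562 cells at 2×10^6 cells/mL were treated with 10 μM compound for 30 min, heated in aliquots for 3 min across 48°C-58°C, pooled, extracted in PBS with 0.5% NP-40 at 4°C, and centrifuged at 21,000xg for 90 min to give the soluble supernatant.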

[2] = compound: CC1=C(C=C(C=C1)NC(=O)C2=CC(=CC=C2)N(C)C)NC(=O)C3=CC=C(C=C3)O
In short: as §1

[3] = compound: CC1=CC=C(C=C1)SC2=C3C=C(SC3=CN=C2)C(=O)N
In short: as §1

[4] = compound: CC1=NC(=CC=C1)C2=C(N=C(N2)C(C)(C)C)C3=CC4=NC=CN=C4C=C3
In short: as §1

Nexturastat A = compound: CCCCN(Cc1ccc(C(=O)NO)cc1)C(=O)Nc1ccccc1 [Nexturastat A]
In short: as §1

vemurafenib = compound: CCCS(=O)(=O)Nc1ccc(F)c(C(=O)c2c[nH]c3ncc(-c4ccc(Cl)cc4)cc23)c1F [vemurafenib]
In short: as §1

[5] = compound: CCCS(=O)(=O)Nc1ccc(F)c(C(=O)c2c[nH]c3ncc(Cl)cc23)c1F
In short: as §1

[6] = compound: CCCc1cc(C)[nH]c(=O)c1CNC(=O)c1cc(-c2ccnc(N3CCN(C)CC3)c2)cc2c1cnn2C(C)C
In short: as §1

givinostat = compound: CCN(CC)Cc1ccc2cc(COC(=O)Nc3ccc(C(=O)NO)cc3)ccc2c1 [givinostat]
In short: as §1

barasertib = compound: CCN(CCCOc1ccc2c(Nc3cc(CC(=O)Nc4cccc(F)c4)[nH]n3)ncnc2c1)CCOP(=O)(O)O [barasertib]
In short: as §1

[7] = compound: CC[C@@H]1C(=O)N(C)c2cnc(Nc3ccc(C(=O)NC4CCN(C)CC4)cc3OC)nc2N1C1CCCC1
In short: as §1

volasertib = compound: CC[C@@H]1C(=O)N(C)c2cnc(Nc3ccc(C(=O)N[C@H]4CC[C@H](N5CCN(CC6CC6)CC5)CC4)cc3OC)nc2N1C(C)C [volasertib]
In short: as §1

[8] = compound: CC[C@H](C)N1C=C(C2=C(C=C(C=C21)C3=CN=C(C=C3)N4CCNCC4)C(=O)NCC5=C(C=C(NC5=O)C)C)C
In short: as §1

epoxomicin = compound: CC[C@H](C)[C@@H](C(=O)N[C@@H]([C@@H](C)O)C(=O)N[C@@H](CC(C)C)C(=O)[C@]1(CO1)C)NC(=O)[C@H]([C@@H](C)CC)N(C)C(=O)C [epoxomicin]
In short: as §1

[9] = compound: CCn1c(C(=O)N(C2CC2)C2CC2)cc2c3c(ncn3C)c(Nc3cc(C)n(C)n3)nc21
In short: as §1

[10] = compound: CN(C)CC(=O)Nc1ccc2[nH]c(=O)c3ccccc3c2c1
In short: as §1

rosiglitazone = compound: CN(CCOC1=CC=C(C=C1)C[C@H]2C(=O)NC(=O)S2)C3=CC=CC=N3 (racemic) [rosiglitazone]
In short: as §1

[11] = compound: CN1C2=C(C3=C1C(=O)N(N=C3)CC4=CC(=CC=C4)N)SC(=C2)S(=O)C
In short: as §1

[12] = compound: CCn1cc(-c2ccnc3[nH]c(-c4cccc(CN(C)C)c4)cc23)c(-c2ccc(NC(=O)N(C)C)cc2)n1
In short: as §1

[13] = compound: CN1CCC(CNc2ccc3ncc(-c4cccc(OC(F)(F)F)c4)n3n2)CC1
In short: as §1

Target	log2 fold change [1]	log2 fold change [2]	log2 fold change [3]	log2 fold change [4]	log2 fold change (Nexturastat A)	log2 fold change (vemurafenib)	log2 fold change [5]	log2 fold change [6]	log2 fold change (givinostat)	log2 fold change (barasertib)	log2 fold change [7]	log2 fold change (volasertib)	log2 fold change [8]	log2 fold change (epoxomicin)	log2 fold change [9]	log2 fold change [10]	log2 fold change (rosiglitazone)	log2 fold change [11]	log2 fold change [12]	log2 fold change [13]
ZFYVE9 (UniProt O95405)	inactive: 0.131	inactive: -0.019	inactive: -0.011	inactive: 0.083	inactive: 0.09	inactive: -0.011	inactive: 0.083	inactive: -0.156	inactive: 0.06	inactive: 0.105	inactive: -0.172	inactive: -0.496	inactive: -0.062	inactive: -0.021	inactive: -0.155	inactive: -0.111	inactive: -0.073	inactive: -0.116		
XPO5 (UniProt Q9HAV4)	inactive: 0.031	inactive: -0.039	inactive: 0.054	inactive: 0.031	inactive: -0.053	inactive: 0.013	inactive: 0.056	inactive: 0.014	inactive: -0.029	inactive: 0.029	inactive: -0.122	active: -0.263	inactive: 0.063	inactive: 0.073		inactive: 0.018		inactive: -0.027	inactive: -0.04	active: -0.302
XPO1 (UniProt O14980)	inactive: 0.072	inactive: -0.063	inactive: 0.025	inactive: 0.081	inactive: -0.061	inactive: 0.086	inactive: 0.101	inactive: -0.011	inactive: 0.024	inactive: 0.039	inactive: -0.175	active: -0.546	inactive: 0.085	inactive: 0.023		inactive: 0.058		inactive: -0.033	inactive: -0.13	active: -0.343
ZDHHC17 (UniProt Q8IUH5)	inactive: 0.076	inactive: 0.01	inactive: 0.038	inactive: -0.095	inactive: -0.086	inactive: 0.016	inactive: -0.016	inactive: -0.061	inactive: 0.113	inactive: 0.067	inactive: -0.009	inactive: -0.095	inactive: -0.022	inactive: -0.044		inactive: -0.005		inactive: -0.027	inactive: -0.018	inactive: 0.065
ZDHHC20 (UniProt Q5W0Z9)	inactive: -0.067	inactive: 0.085	inactive: 0.014	inactive: -0.007	inactive: -0.149	inactive: 0.049	inactive: 0.138	inactive: -0.079	inactive: -0.167	inactive: 0.022	inactive: 0.031	inactive: 0.011	inactive: -0.046	inactive: -0.102		inactive: -0.026		inactive: 0.084	inactive: -0.016	inactive: 0.035
YIPF4 (UniProt Q9BSR8)	inactive: 0.013	inactive: 0.025	inactive: -0.023	inactive: -0.067	inactive: 0.021	inactive: 0.03	inactive: -0.01	inactive: -0.036	inactive: -0.048	inactive: 0.026	inactive: 0.022	inactive: 0.134	inactive: -0.016	inactive: -0.005		inactive: 0.09		inactive: -0.06	inactive: 0.037	inactive: 0.101
YY1 (UniProt P25490)	inactive: 0.035	inactive: -0.012	inactive: 0.01	inactive: 0.039	inactive: 0.069	inactive: 0.03	inactive: 0.037	inactive: -0.006	inactive: 0.02	inactive: -0.01	inactive: -0.149	active: -0.44	inactive: 0.061	inactive: -0.003		inactive: -0.047		inactive: 0.045	inactive: 0.002	inactive: -0.21
YIPF5 isoform 3 (UniProt Q969M3)	inactive: 0.042	inactive: -0.138	inactive: 0.071	inactive: -0.073	inactive: 0.091	inactive: -0.021	inactive: -0.096	inactive: -0.005	inactive: -0.053	inactive: -0.08	inactive: 0.088	inactive: 0.058	inactive: -0.041	inactive: 0.023		inactive: 0.014		inactive: 0.043	inactive: 0.06	inactive: -0.288
XPNPEP1 isoform 3 (UniProt Q9NQW7)	inactive: 0.014	inactive: -0.024	inactive: 0.023	inactive: 0.036	inactive: -0.014	inactive: 0	inactive: 0.021	inactive: -0.01	inactive: 0.042	inactive: 0.016	inactive: 0.027	inactive: 0.049	inactive: 0.018	inactive: -0.024		inactive: 0.051		inactive: -0.064	inactive: -0.043	inactive: -0.076

Part of the list above, bar-delimited:
Target | log2 fold change [1] | log2 fold change [2] | log2 fold change [3] | log2 fold change [4] | log2 fold change (Nexturastat A) | log2 fold change (vemurafenib) | log2 fold change [5] | log2 fold change [6] | log2 fold change (givinostat) | log2 fold change (barasertib) | log2 fold change [7] | log2 fold change (volasertib) | log2 fold change [8] | log2 fold change (epoxomicin) | log2 fold change [9] | log2 fold change [10] | log2 fold change (rosiglitazone) | log2 fold change [11] | log2 fold change [12] | log2 fold change [13]
ZDHHC20 (UniProt Q5W0Z9) | inactive: -0.067 | inactive: 0.085 | inactive: 0.014 | inactive: -0.007 | inactive: -0.149 | inactive: 0.049 | inactive: 0.138 | inactive: -0.079 | inactive: -0.167 | inactive: 0.022 | inactive: 0.031 | inactive: 0.011 | inactive: -0.046 | inactive: -0.102 |  | inactive: -0.026 |  | inactive: 0.084 | inactive: -0.016 | inactive: 0.035
YIPF4 (UniProt Q9BSR8) | inactive: 0.013 | inactive: 0.025 | inactive: -0.023 | inactive: -0.067 | inactive: 0.021 | inactive: 0.03 | inactive: -0.01 | inactive: -0.036 | inactive: -0.048 | inactive: 0.026 | inactive: 0.022 | inactive: 0.134 | inactive: -0.016 | inactive: -0.005 |  | inactive: 0.09 |  | inactive: -0.06 | inactive: 0.037 | inactive: 0.101
